Source: US10695325B2, “Compounds and methods for treating an epileptic disorder” (priority 2013, dated 2020)
Structures can show the parent of a compound that is named as a salt. Where two headings read alike, the source gives them in different places. At least one structure is not confirmed: it was looked up by name or label, or the drawing left a doubt. Some entries share one result that the patent states for a list of compounds.

Experiments:
scn1Lab mutant zebrafish [1] = assay type: in vivo, Danio rerio (zebrafish)
scn1Lab mutant zebrafish [2] = test system: scn1Lab mutant zebrafish; design: species or system Danio rerio (zebrafish); settings: in vivo
[3] = 1 mM (KD: 48 hr exposure), 5 dpf, baseline vs after drug

Row | Compound | reduction of seizure activity, measured as a change in velocity (scn1Lab mutant zebrafish [1]; [3]) | reduction of seizure activity, measured as a change in velocity (scn1Lab mutant zebrafish [1]; zebrafish, in vivo) | also measured
1 | CN1C(=O)CN=C(c2ccccc2)c2cc(Cl)ccc21 [diazepam] | more than 34% |  | 
2 | CCCC(CCC)C(=O)O [valproate] |  | more than 34% | effect on locomotor seizure behavior (scn1Lab mutant zebrafish [1]; zebrafish, in vivo): effectively inhibited seizure behavior; Epileptiform event frequency (burst frequency; interictal- and ictal-like discharges) (scn1Lab mutant zebrafish [2]): reduced; fractional time spent seizing (scn1Lab mutant zebrafish [2]): reduced
3 | CC(=O)[C@H]1CC[C@H]2[C@@H]3CC[C@H]4C[C@](C)(O)CC[C@]4(C)[C@H]3CC[C@]12C [ganaxolone] | more than 34% |  | 
4 | CC(C)(C)C(O)/C=C/c1ccc2c(c1)OCO2 (stereo not drawn) [stiripentol] |  | more than 34% | 
5 | CN(C)CCN(Cc1ccc(Cl)cc1)c1ccccn1 [chloropyramine HCl] |  |  | convulsive behavior (H1 antihistamines) (scn1Lab mutant zebrafish [1]; zebrafish, in vivo): failed to suppress convulsive behavior
6 | NC(=O)N1c2ccccc2C=Cc2ccccc21 [carbamazepine] |  | more than 34% | 
